Assay: HS-SPME-GC-olfactory analysis of irone isomers
Conditions: HS-SPME-GCO

| SMILES | olfactory property (aroma detected) |
| --- | --- |
| CC(=O)/C=C/[C@@H]1C(C)=CC[C@H](C)C1(C)C (relative stereo) [cis-α-irone] | has olfactory properties |
| CC(=O)/C=C/[C@@H]1C(C)=CC[C@@H](C)C1(C)C (relative stereo) [trans-α-irone] | does not have any olfactory properties |

Reference: US20240240209A1, “SYNTHESIS OF ENANTIOPURE CIS-A-IRONE FROM A RENEWABLE CARBON SOURCE” (Agency for Science, Technology and Research, priority 2021, published 2024)
